Reference: article PMC4595342
These are yes or no findings as the source states them, for the method shown. Binding seen in cells or lysates may run through a third protein. Where a sequence is shown, tags or fusion partners need not be part of it.

Molecular target: T1, KIF7-GFP (mouse) (UniProt B7ZNG0)
T1 sequence: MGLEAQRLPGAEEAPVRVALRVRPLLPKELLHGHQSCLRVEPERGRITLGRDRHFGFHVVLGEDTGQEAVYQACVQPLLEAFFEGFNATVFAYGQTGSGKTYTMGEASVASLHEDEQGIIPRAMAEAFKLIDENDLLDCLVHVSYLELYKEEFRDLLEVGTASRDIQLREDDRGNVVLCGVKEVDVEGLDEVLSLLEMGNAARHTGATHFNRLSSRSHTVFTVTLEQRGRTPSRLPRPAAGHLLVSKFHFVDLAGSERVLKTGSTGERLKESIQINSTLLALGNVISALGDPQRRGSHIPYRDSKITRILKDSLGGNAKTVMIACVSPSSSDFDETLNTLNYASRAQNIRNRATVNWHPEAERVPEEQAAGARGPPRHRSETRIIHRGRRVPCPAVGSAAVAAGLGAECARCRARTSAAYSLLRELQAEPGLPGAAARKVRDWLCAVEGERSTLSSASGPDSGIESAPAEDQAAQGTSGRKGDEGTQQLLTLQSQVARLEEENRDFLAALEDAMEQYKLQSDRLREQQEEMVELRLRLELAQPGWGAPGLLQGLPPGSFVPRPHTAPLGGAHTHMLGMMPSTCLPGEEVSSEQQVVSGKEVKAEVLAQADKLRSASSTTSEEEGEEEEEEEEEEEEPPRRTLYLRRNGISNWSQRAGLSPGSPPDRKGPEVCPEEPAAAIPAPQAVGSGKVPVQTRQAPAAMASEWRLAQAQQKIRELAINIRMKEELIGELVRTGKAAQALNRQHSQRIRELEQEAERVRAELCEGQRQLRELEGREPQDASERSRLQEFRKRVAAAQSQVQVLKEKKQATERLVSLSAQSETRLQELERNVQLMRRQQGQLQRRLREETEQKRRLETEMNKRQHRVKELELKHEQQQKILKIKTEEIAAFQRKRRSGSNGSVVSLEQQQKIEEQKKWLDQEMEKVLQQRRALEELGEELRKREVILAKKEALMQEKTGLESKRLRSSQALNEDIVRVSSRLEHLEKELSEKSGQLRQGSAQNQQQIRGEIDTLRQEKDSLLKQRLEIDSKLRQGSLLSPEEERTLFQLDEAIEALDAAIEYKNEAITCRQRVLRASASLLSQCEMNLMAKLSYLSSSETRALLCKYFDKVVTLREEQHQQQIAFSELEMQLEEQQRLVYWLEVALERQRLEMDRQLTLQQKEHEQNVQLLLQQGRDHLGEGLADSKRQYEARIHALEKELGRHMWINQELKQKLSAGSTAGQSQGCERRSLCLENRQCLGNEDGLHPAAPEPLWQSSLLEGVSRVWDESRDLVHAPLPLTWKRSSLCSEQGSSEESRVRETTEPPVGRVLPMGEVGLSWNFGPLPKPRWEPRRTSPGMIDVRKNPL
Experiment: co-IP; KIF7-GFP precipitated with GFP-trap agarose beads (Chromotek GFP trap kit) from asynchronous KIF7-GFP expressing MLE15 cells; immunoblots of the precipitate; agarose beads as negative control

- binding: no binding
Substance: cyclin b (mouse (endogenous in MLE15))
